# Results published in PubChem BioAssay AID588590 (National Center for Advancing Translational Sciences (NCATS), 2011).
# By UniProt entry, the sequences of proteins in these tests, tags left out. Where a name states a change or a piece, a line headed by the entry shows the natural chain unless it says otherwise.
# UniProt Q9UNA4: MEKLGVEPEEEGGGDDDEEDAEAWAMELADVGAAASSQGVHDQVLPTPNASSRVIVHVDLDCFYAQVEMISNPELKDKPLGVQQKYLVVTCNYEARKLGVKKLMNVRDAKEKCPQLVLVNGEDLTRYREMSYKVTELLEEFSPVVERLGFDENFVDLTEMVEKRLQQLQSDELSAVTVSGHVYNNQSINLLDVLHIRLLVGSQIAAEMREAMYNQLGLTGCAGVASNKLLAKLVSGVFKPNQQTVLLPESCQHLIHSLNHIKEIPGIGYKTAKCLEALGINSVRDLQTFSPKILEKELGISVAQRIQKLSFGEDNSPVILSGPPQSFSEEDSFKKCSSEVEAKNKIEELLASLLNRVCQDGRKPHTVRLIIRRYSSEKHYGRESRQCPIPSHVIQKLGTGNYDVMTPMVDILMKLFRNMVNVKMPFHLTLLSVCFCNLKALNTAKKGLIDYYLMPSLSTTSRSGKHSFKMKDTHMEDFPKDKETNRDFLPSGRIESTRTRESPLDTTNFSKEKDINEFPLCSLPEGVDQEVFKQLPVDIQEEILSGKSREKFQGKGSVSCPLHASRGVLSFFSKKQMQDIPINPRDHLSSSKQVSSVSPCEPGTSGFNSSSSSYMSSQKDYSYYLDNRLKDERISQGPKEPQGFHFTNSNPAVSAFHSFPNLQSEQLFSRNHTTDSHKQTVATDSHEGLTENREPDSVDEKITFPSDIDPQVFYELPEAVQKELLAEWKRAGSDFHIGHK
# The campaign covered roughly 390,000 compounds. About 4,000 (1%) were called active. Inconclusive means that the source gave no clear call. Such entries were picked first, then a sample of the others. Calls follow the shape of the dose curve; as a rule, active = well fitted inhibition curve with a large enough effect; inconclusive = small, poorly fitted or top-dose-only effect, or another doubt; inactive = no such curve, though single readings can be large or run the other way. Potencies beside an inconclusive call are fits to weak or partial responses and may not hold up.
# Target: DNA polymerase iota (Homo sapiens) (UniProt Q9UNA4)
# Assay: qHTS for Inhibitors of Polymerase Iota
# Settings: Pol iota fluorescent replication assay, 10 min; series mostly up to 115 µM
# In short: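 Fluorescent replication assay read twice, at 0 min and 10 min after adding 50 nM (final) substrate. Enzyme (10 nM) and compounds were first incubated 15 min at room temperature; enzyme-free buffer wells were negative controls.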
# Potency is read from the fitted curve at half-maximal effect.
row,SMILES,Potency
1,CCOC(=O)c1ccc(N2C(=O)CC(C)(CC)CC2=O)cc1,"inconclusive: 10 µM [inhibitor, partial curve, poor fit]"
2,COc1ccc(/C=N/NC(=O)c2ccoc2C)cc1COc1ccc(Cl)cc1,"inconclusive: 3.16 µM [inhibitor, single point]"
3,Oc1cccc(Nc2nc(O)c(/C=C3\C=Nc4ccccc43)s2)c1,"inconclusive: 25.1 µM [inhibitor, partial curve, poor fit]"
4,C[C@H](O)[C@@H]1C(=O)N2CCc3ccc(N4CCOCC4)cc3[C@@H]2C[C@@H]1N(C)C(=O)C(C)(C)C,"inconclusive: 2.51 µM [inhibitor, partial curve, poor fit]"
5,CC(=O)N1CCc2c(sc(NC(=O)c3ccc([N+](=O)[O-])o3)c2C#N)C1,"inconclusive: 20 µM [inhibitor, full curve, poor fit]"
6,O=C(O)COc1ccccc1/C=N/NC(=O)c1cccc(S(=O)(=O)N2CCOCC2)c1,"inconclusive: 89.1 µM [inhibitor, single point]"
7,COc1ccc(C2CC(c3ccc(OC)c(OC)c3)=NN2C(=O)c2ccccc2)cc1 (stereo not given),"inconclusive: 56.2 µM [inhibitor, partial curve, poor fit]"
8,CCn1c(SCC(=O)NC(=O)NCc2ccco2)nnc1-c1cccs1,"inconclusive: 8.91 µM [inhibitor, full curve, poor fit]"
9,Cc1ccc(OCC(=O)NNc2c3ccccc3nc3ccccc23)cc1,"inconclusive: 15.8 µM [inhibitor, full curve, poor fit]"
10,CCCN(CCC)C(=O)c1c[nH]c2ccc(S(=O)(=O)N(C)c3ccc(Cl)cc3)cc2c1=O,inactive
11,COc1cccc(N2CCN(C(=O)CCn3nc(C)c(S(=O)(=O)N4CCCC4)c3C)CC2)c1,"inconclusive: 89.1 µM [inhibitor, single point]"
12,COc1ccc(-c2cn3nc(N4CCCC(C(=O)Nc5ccccc5F)C4)sc3n2)cc1 (stereo not given),inactive
13,O=C(NCc1ccco1)c1cc2ccc(O)cc2oc1=O,"inconclusive: 22.4 µM [inhibitor, full curve, poor fit]"
14,CC(=O)N1CCc2cc(CNS(=O)(=O)c3cccs3)ccc21,inactive
15,CCNc1ccc(/C=C/c2ccnc3ccccc23)cc1,"inconclusive: 100 µM [inhibitor, partial curve, poor fit]"
16,CC(=O)CCc1c(C)nc2ccc(C(=O)O)cc2c1Cl,"inconclusive: 15.8 µM [inhibitor, partial curve, poor fit]"
17,Cc1[nH]n(C(N)=S)c(=O)c1N=Nc1ccc2ccccc2c1,"inconclusive: 39.8 µM [inhibitor, single point]"
18,CCCCn1c(=O)c2c(O)cc(=O)oc2c2ccccc21,inactive
19,COc1ccc(CC(=O)NC(C)C2COc3ccccc3O2)cc1OC (stereo not given),"inconclusive: 20 µM [inhibitor, single point]"
20,COc1cccc(-c2nc(CS(=O)(=O)CC(=O)Nc3cc(OC)ccc3OC)c(C)o2)c1,inactive
21,O=C(O)CC(Cc1ccc(Cl)cc1)C(=O)Nc1cc(Cl)ccc1Cl (stereo not given),inactive
22,COC(=O)c1cc(S(=O)(=O)NCC2CCN(Cc3cccc(Cl)c3)CC2)c[nH]1,inactive

row,SMILES,Potency
1,COC(=O)c1ccccc1NC(=O)Cn1nc(C)c2nn(-c3ccc(Cl)cc3)c(C)c2c1=O,inactive
2,COc1ccc(Cl)cc1NC(=O)C1CCCN(S(=O)(=O)c2ccc3c(c2)CCCC(=O)N3)C1 (stereo not given),inactive
3,O=C(O)c1ccc(N2C(=O)/C(=C/C=C/c3ccccc3)SC2=S)cc1,"inconclusive: 79.4 µM [inhibitor, single point]"
4,COCc1cc(C)nc(SCC(=O)Nc2ccccc2C)c1C#N,"inconclusive: 11.2 µM [inhibitor, partial curve, poor fit]"
5,Cc1ccc(C(=O)NCC(=O)OCCOc2ccccc2Cl)cc1,"inconclusive: 100 µM [inhibitor, single point]"
6,O=Nc1ccc(O)c2ncccc12,"inconclusive: 15.8 µM [inhibitor, partial curve, poor fit]"
7,CCn1c(CSc2n[nH]c(N)n2)nc2cc(C(=O)O)ccc21,active: 50.1 µM
8,COc1ccc(S(=O)(=O)N2CCC(C(=O)Nc3ccc(Oc4ccccc4)cc3)CC2)cc1OC,"inconclusive: 89.1 µM [inhibitor, single point]"
9,C(#Cc1ccc2c(c1)COc1c3ccccc3nn1-2)c1ccccc1,"inconclusive: 39.8 µM [inhibitor, single point]"
10,CCCCSCCCNC(=O)c1cn(CC)c2ccc(S(=O)(=O)N3CCOCC3)cc2c1=O,"inconclusive: 17.8 µM [inhibitor, partial curve, poor fit]"
11,Cc1cc(C)c2c(n1)nn1c(C)c(CCC(=O)Nc3ccc(C)c(Cl)c3)c(C)nc21,inactive
12,CN(C)c1ccc(C2/C(=C(/O)c3ccc(Br)cc3)C(=O)C(=O)N2C)cc1 (stereo not given),"inconclusive: 7.94 µM [inhibitor, partial curve, poor fit]"
13,CCSC1=NC2(CCN(C(=O)NC3CCCCC3)CC2)N=C1c1ccc(C)cc1,inactive
14,CCC(C)C(=O)Nc1nc(C)c(-c2csc(Nc3ccccc3OC)n2)s1 (stereo not given),"inconclusive: 28.2 µM [inhibitor, single point]"
15,COc1ccc(C(CC(=O)O)NC(=O)COc2ccccc2)cc1OC (stereo not given),"inconclusive: 39.8 µM [inhibitor, single point]"
16,Cc1cccc(C(=O)NC2CCN(CC(=O)Nc3ccccc3Cl)CC2)c1,inactive
17,Cc1ccc(C)c(N2CCN(c3nnnn3-c3ccccc3)CC2)c1,"inconclusive: 17.8 µM [inhibitor, partial curve, poor fit]"
18,CC1CC(C)CN(C(=O)c2ccc3c(c2NCCO)C(=O)c2ccccc2C3=O)C1 (stereo not given),"inconclusive: 79.4 µM [inhibitor, partial curve, poor fit]"
19,Cc1cc(-c2nc3ncccc3o2)ccc1NC(=O)c1ccc([N+](=O)[O-])o1,active: 3.55 µM
20,Cc1[nH]n(-c2ccc(Cl)cc2)c(=O)c1C=Nc1ccc(S(=O)(=O)N2CCOCC2)cc1,"inconclusive: 11.2 µM [inhibitor, partial curve, poor fit]"
21,CC1(C)CC(=O)c2cc(C(=O)Nc3cccc4ccccc34)c(=O)[nH]c2C1,inactive
22,O=C1OC(c2ccccc2)=C/C1=C\N1CCOCC1,"inconclusive: 25.1 µM [inhibitor, partial curve, poor fit]"

# 3 compounds from above, arranged by number of heavy atoms, smallest number first.
row,SMILES,Potency
6,O=Nc1ccc(O)c2ncccc12,"inconclusive: 15.8 µM [inhibitor, partial curve, poor fit]"
7,CCn1c(CSc2n[nH]c(N)n2)nc2cc(C(=O)O)ccc21,active: 50.1 µM
14,CCC(C)C(=O)Nc1nc(C)c(-c2csc(Nc3ccccc3OC)n2)s1 (stereo not given),"inconclusive: 28.2 µM [inhibitor, single point]"

# Next part.

row,SMILES,Potency
1,O=C(CCCn1cnc([N+](=O)[O-])n1)Nc1cccc(O)c1,"inconclusive: 44.7 µM [inhibitor, partial curve, poor fit]"
2,C(=NN=C(NN=Cc1cccs1)NN=Cc1cccs1)c1cccs1,active: 79.4 µM
3,CCCC(=O)Nc1nnc(/C=C/c2ccccc2)s1,"inconclusive: 1.78 µM [inhibitor, full curve, poor fit]"
4,CCOC(=O)c1cnn2c(N)c(C#N)nnc12,active: 89.1 µM
5,C=CC[C@@H](CC(=O)N[C@@H](CO)Cc1ccccc1)C(=O)N[C@H](COC(=O)[C@@H](CC=C)Cc1ccc(F)cc1)Cc1ccccc1,inactive
6,COc1ccc2c(c1)Cc1sc(NC(=O)c3ccccc3)nc1-2,active: 15.8 µM
7,Cc1cc(NC(=O)c2cc(-c3ccncc3)nc3c(C)cccc23)no1,"inconclusive: 31.6 µM [inhibitor, full curve, poor fit]"
8,Cc1ccc(CNS(=O)(=O)c2ccc(F)c(C(=O)Nc3ccc(C)c(F)c3)c2)cc1,"inconclusive: 79.4 µM [inhibitor, partial curve, poor fit]"
9,Cc1cccc(NC(=O)C(C)SCc2nc3sc(C)c(C)c3c(=O)[nH]2)n1 (stereo not given),"inconclusive: 14.1 µM [inhibitor, partial curve]"
10,Cc1ccc(Cn2c(C(C)Nc3nc(-c4ccc(Cl)cc4)cs3)nc3cc(C(=O)NCCCO)ccc32)cc1 (stereo not given),"inconclusive: 3.16 µM [inhibitor, full curve, poor fit]"
11,NCCCCCCCCCCN,"inconclusive: 3.16 µM [inhibitor, single point]"
12,Cc1cccc2c(N=NC(=O)c3ccc(NS(=O)(=O)c4cccs4)cc3)c(O)[nH]c12,"inconclusive: 11.2 µM [inhibitor, full curve, poor fit]"
13,COc1cc(NS(=O)(=O)c2ccc(NC(=O)CCC(=O)O)cc2)nc(OC)n1,"inconclusive: 56.2 µM [inhibitor, partial curve, poor fit]"
14,CCCC(=O)N(c1ccc2oc3c(c2c1)CCCC3)S(=O)(=O)c1ccc(CC)cc1,inactive
15,Cn1cc(S(=O)(=O)CC(=O)Nc2ccc3c(c2)OCCO3)c2ccccc21,"inconclusive: 35.5 µM [inhibitor, partial curve]"
16,N/C(=N\OC(=O)Cc1cccc2ccccc12)c1ccccn1,"inconclusive: 17.8 µM [inhibitor, full curve, poor fit]"
17,CCOC(=O)c1cc(S(=O)(=O)Nc2ccc(F)cc2F)cn1C,inactive
18,O=C(CCc1ccccc1)Nc1ccc(F)c([N+](=O)[O-])c1,inactive
19,Cc1nc(C(=O)Nc2ccccc2)sc1C(=O)Nc1ccccc1,"inconclusive: 39.8 µM [inhibitor, partial curve, poor fit]"
20,CCc1nnc(NS(=O)(=O)c2ccc(NC(=S)NC(=O)/C=C/c3ccc(F)cc3)cc2)s1,"inconclusive: 35.5 µM [inhibitor, full curve]"
21,C/C(=N\NC(=O)c1ccc(NS(=O)(=O)c2cccs2)cc1)c1ccc(O)cc1O,inactive

# A few values from above.
# Potency, O=C(O)c1ccc(N2C(=O)/C(=C/C=C/c3ccccc3)SC2=S)cc1 reads inconclusive: 79.4 µM [inhibitor, single point]
# Potency, CC(=O)N1CCc2c(sc(NC(=O)c3ccc([N+](=O)[O-])o3)c2C#N)C1 reads inconclusive: 20 µM [inhibitor, full curve, poor fit]
